Here are results for eight molecules from US20240417359A1, “PRECURSORS OF PHENOLIC FRAGRANT COMPOUNDS” (GIVAUDAN SA, priority 2021, published 2024).

This series in a line: Headspace analysis of released volatiles (SPME GC-MS). Particulars: paper strip in headspace vial, 24 h daylight lamp, relative peak area. The format is physicochemical.

On to `C=CCC(CC/C=C\CC)Oc1ccc(C=O)cc1OCC` (stereo not shown) [Example 12, (Z)-4-(deca-1,7-dien-4-yloxy)-3-ethoxybenzaldehyde], for which the “Released Volatiles (MS-TIC peak area %): 2,6-Nonadienal” value is recorded as 2,6-Nonadienal (4.7%), ethylvanillin and the “Released Volatiles (MS-TIC peak area %): ethylvanillin” value is listed as “(0.03%)”.
Take `C=CCC(CCCCCC)Oc1ccc(C=O)cc1OCC` (stereo not shown) [Example 22, 4-(dec-1-en-4-yloxy)-3-ethoxybenzaldehyde]: the “Released Volatiles (MS-TIC peak area %): 1-decen-4-ol” value is reported as 25.5%, the “Released Volatiles (MS-TIC peak area %): 2-Nonenal” value came out at 4.1%, the “Released Volatiles (MS-TIC peak area %): 3-decen-2-one” value came out at 5.1% and the “Released Volatiles (MS-TIC peak area %): ethylvanillin” value is 0.05%.
On to `CC/C=C/CC(CCCCCCCCC)Oc1ccc(C=O)cc1OCC` (stereo not shown) [Example 29, (E)-3-ethoxy-4-(pentadec-3-en-6-yloxy)benzaldehyde], for which the “Released Volatiles (MS-TIC peak area %): 2-dodecenal” value worked out at 1.2%, the “Released Volatiles (MS-TIC peak area %): Decanal” value turned out to be 4.7% and the “Released Volatiles (MS-TIC peak area %): ethylvanillin” value is “ethylvanillin (0.02%)”.
Take `CC/C=C\C/C=C\CCOc1ccc(C=O)cc1OCC` [Example 30, 3-ethoxy-4-(((3Z,6Z)-nona-3,6-dien-1-yl)oxy)benzaldehyde]: the “Released Volatiles (MS-TIC peak area %): 1-penten-3-ol” value amounted to 11.8%; the “Released Volatiles (MS-TIC peak area %): 2-Pentenal” value is on record as 13.1%; the “Released Volatiles (MS-TIC peak area %): 2-hexenal” value is reported as 2-hexenal (11.4%), nona-3,6-dien-1-ol,; the “Released Volatiles (MS-TIC peak area %): ethylvanillin” value is listed as 0.8%. Besides, the “Released Volatiles (MS-TIC peak area %): nona-3,6-dien-1-ol” value was 8.0%.
`CCOc1cc(C=O)ccc1OCCC=C(C)CCc1ccccc1` [Example 47, 3-ethoxy-4-((4-methyl-6-phenylhex-3-en-1-yl)oxy)benzaldehyde]: the “Released Volatiles (MS-TIC peak area %): benzylacetone” value is “benzylacetone (45.5%),” and the “Released Volatiles (MS-TIC peak area %): ethylvanillin” value is on record as “ethylvanillin (0.5%)”.
For `CCOc1cc(C=O)ccc1OCC/C=C(\C)c1ccc2ccccc2c1` [Example 51, (E)-3-ethoxy-4-((4-(naphthalen-2-yl)pent-3-en-1-yl)oxy)benzaldehyde], the “Released Volatiles (MS-TIC peak area %): 2-acetyl naphtalene” value stood at 12.8% and the “Released Volatiles (MS-TIC peak area %): ethylvanillin” value was determined as 1.0%.
Consider `COC(=O)c1ccccc1OCCC=C(C)CCc1ccccc1` [Example 56, methyl 2-((4-methyl-6-phenylhex-3-en-1-yl)oxy)benzoate], for which the “Released Volatiles (MS-TIC peak area %): 4-phenyl-2-butanone” value was “butanone (5.2%)” and the “Released Volatiles (MS-TIC peak area %): methyl salicylate” value is reported as “methyl salicylate (21.7%), 4-phenyl-2-”.
Turning to `C=CCC(Oc1ccc(C=O)cc1OCC)c1ccccc1` (stereo not shown) [Example 68, 3-ethoxy-4-((1-phenylbut-3-en-1-yl)oxy)benzaldehyde], the “Released Volatiles (MS-TIC peak area %): 1-phenylbut-3-en-1-ol” value worked out at 21%; the “Released Volatiles (MS-TIC peak area %): acetophenone” value worked out at 1.8%; the “Released Volatiles (MS-TIC peak area %): benzaldehyde” value is listed as “benzaldehyde (12.7%), acetophenone”; the “Released Volatiles (MS-TIC peak area %): cinnamaldehyde” value is “cinnamaldehyde (0.3%), ethylvanillin”. For the same molecule, the “Released Volatiles (MS-TIC peak area %): ethylvanillin” value is recorded as “(0.3%)”.
